PubChem BioAssay AID1259254 – NCATS, 2017
Shown is a random part of about 59,000 deposited reagents. About 1,550 of all reagents (2.6%) were called active. 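G2 share is only a proxy for re-replication; each gene was hit by three separate siRNAs, and active genes were retested.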 Unmarked entries are inactive. Not all columns of the deposit are shown. Not given: the amount of reagent.

Screen: 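Genome-wide screen for genes that prevent DNA re-replication in cancer cells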 (primary screen)
Cell system: human HCT116 colorectal cancer cells
Knock-down reagent: single siRNA against human genes
Timing: 3 days
Read-out: 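Imaged Hoechst DNA stain sorts each cell into a cycle phase by DNA amount; per plate, G2 fraction set to 0% for non-targeting and 100% for GMNN siRNA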
Reading the numbers: G2 robust z-score: higher = more G2 cells, more excess DNA replication
Active means: 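Active siRNAs have a G2 robust z of 5 or more median absolute deviations over the median, which in these data means about 38% or higher of GMNN control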

G2 robust z-score, by gene and reagent
CCDC32 (GeneID 90416): SID160735170 -0.0424; SID160753690 1.99; SID160753691 1.06
NTSR1 (GeneID 4923): SID160778289 -1.53; SID160778290 -0.449; SID160778291 -1.11
HECTD3 (GeneID 79654): SID160749106 -1.5; SID160749108 -0.184; SID160749109 4.2
RTL3 (GeneID 203430): SID160761144 -0.557; SID160761145 -0.411; SID160761146 1.7
PLA2G4E (GeneID 123745): SID160730579 0.346; SID160756099 -0.706; SID160756100 0.406
CES2 (GeneID 8824): SID160732101 0.953; SID160766612 1.41; SID160766701 1.18
CD24 (GeneID 100133941): SID160735216 0.12; SID160738729 6.62 (active); SID160738739 1.3
CES5A (GeneID 221223): SID160730790 -0.808; SID160761630 -1.51; SID160761631 0.249
RTP2 (GeneID 344892): SID160764819 -0.318; SID160764820 -0.579; SID160764821 2.49
CCDC13 (GeneID 152206): SID160759222 0.318; SID160759224 -0.365; SID160759225 -0.873
